In article PMC7819943, “Rice protein-binding microarrays: a tool to detect cis-acting elements near promoter regions in rice”:
This is one part of the list.

These sequences were tested against T1, OsSMF1 (Oryza sativa, UniProt Q6ZLB0 1-436) (assay: protein-binding microarray (RPBM); PBS, 2% BSA, 51.3 ng/ul salmon testes DNA, 50 uM zinc acetate, 200 nM TF, 25 C, 1 h; high values mean tight binding). Conditions: protein: recombinant; tags: N-terminal polyhistidine and DsRed monomer fusion (pET32a); chain copies: 2; label: CyDye5-dUTP incorporated in the synthesized complementary strand; 3' TTTTT single-stranded linker to array surface; dsDNA, one strand shown.
T1 sequence: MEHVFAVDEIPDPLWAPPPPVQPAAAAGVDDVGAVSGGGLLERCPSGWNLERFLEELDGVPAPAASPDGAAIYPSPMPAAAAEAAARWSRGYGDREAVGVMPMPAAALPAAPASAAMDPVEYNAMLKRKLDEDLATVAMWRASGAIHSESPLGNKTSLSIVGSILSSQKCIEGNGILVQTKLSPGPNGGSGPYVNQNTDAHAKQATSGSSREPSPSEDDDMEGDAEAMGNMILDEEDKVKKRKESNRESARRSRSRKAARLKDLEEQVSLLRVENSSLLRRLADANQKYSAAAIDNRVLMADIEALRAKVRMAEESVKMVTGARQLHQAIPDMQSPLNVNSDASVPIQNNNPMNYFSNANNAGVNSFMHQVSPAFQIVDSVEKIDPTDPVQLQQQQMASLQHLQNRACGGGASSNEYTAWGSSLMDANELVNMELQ
Summary of the method: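 Transcription factors were made in E. coli BL21-CodonPlus as N-terminal fusions to a polyhistidine tag and DsRed, then purified on Ni–NTA. After primer extension with Cy5-dUTP and blocking with 2% BSA, a custom Agilent array was exposed for 1 h at 25 °C to 200 nM protein in PBS, 2% BSA, salmon testes DNA and 50 µM zinc acetate. Washed arrays were scanned on an Axon 4000B, and the binding signal is per-feature fluorescence intensity in arbitrary units.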
For “TTTGCCCATTTTATTCCCTTGCGTCATCCATTTACTGCTTCGGAGTCACCTAGTGCAG”, the binding signal was 13800 fluorescence intensity (a.u.).
In the case of “TCCTTTGCCTTCAAAGGCATCGTGCCTTTGTCACTTACATCGGAGTCACCTAGTGCAG”, the binding signal is reported as 17100 fluorescence intensity (a.u.).
“TAACTGCGTTGACATGTCGCCTTGCTATACTCACATTCTTCGGAGTCACCTAGTGCAG” was tested, and the binding signal was 3240 fluorescence intensity (a.u.).
For “ACTGGACACCATAGCTTCTTCGCCCGTCGTTTGCCTATCTCGGAGTCACCTAGTGCAG”, the binding signal was 3190 fluorescence intensity (a.u.).
For “ACGAGCTCCGGGGAGGAGAAGTGGCAGTGCTTGGCGAGGACGGAGTCACCTAGTGCAG”, the binding signal was 3250 fluorescence intensity (a.u.).
With “CTCCAATTTCACCAGTTCGACTATCCACGCCATATCCTCTCGGAGTCACCTAGTGCAG” the binding signal was 3660 fluorescence intensity (a.u.).
With “GTGTTTGAGTTGGATTATACGCTCGTTTGCTTTTGGAAATCGGAGTCACCTAGTGCAG” the binding signal was 4530 fluorescence intensity (a.u.).
With “TGATGGCCCAGCCCGCCAGCCACCTCCGCAAGTCCGCATCCGGAGTCACCTAGTGCAG” the binding signal was 30200 fluorescence intensity (a.u.).
With “CTCCGTTCTACTCCAGTACACTGTAACACTGTTGTTGGCGCGGAGTCACCTAGTGCAG” the binding signal was 14500 fluorescence intensity (a.u.).
In the case of “CCATTAACAAACTAAAATGACAGCTCCGCACTGCCCCAACCGGAGTCACCTAGTGCAG”, the binding signal is reported as 4980 fluorescence intensity (a.u.).
With “CTAGCTTACACAGGTGTGTGGGCCCACCACGCGTGCTGGGCGGAGTCACCTAGTGCAG” the binding signal was 3650 fluorescence intensity (a.u.).
“CTTCTGGTCAAAGGATGACATCAATCCCTATCATCTCATCCGGAGTCACCTAGTGCAG” was tested, and the binding signal was 4630 fluorescence intensity (a.u.).
For “CAGTTCCTAATTTTGCACTGAATCAGCGCCACTGATGCATCGGAGTCACCTAGTGCAG”, the binding signal was 3460 fluorescence intensity (a.u.).
“TTATTATTATTGGATGGTTAGATGACAAATCCAACCTCACCGGAGTCACCTAGTGCAG” was tested, and the binding signal was 3640 fluorescence intensity (a.u.).
“TGCGGAGCGTACATGTGGCCCAATAGTGTGGGCGGCCTGGCGGAGTCACCTAGTGCAG” was tested, and the binding signal was 3360 fluorescence intensity (a.u.).
With “TACTATTAGGTATGTGGTATCCATAACCCTGACACATACCCGGAGTCACCTAGTGCAG” the binding signal was 3600 fluorescence intensity (a.u.).
For “CGTGAACCCCATGTGTCAGCCTCATCTCCCTTCTTCCCTCCGGAGTCACCTAGTGCAG”, the binding signal was 3290 fluorescence intensity (a.u.).
With “TTCGTGATTTCGCACGGCTACTATCGTAGATCGAAGGGGACGGAGTCACCTAGTGCAG” the binding signal was 4040 fluorescence intensity (a.u.).
For “AATTCGTTTTGAACACCATACGTCAGTTCGTCTAGAAGCACGGAGTCACCTAGTGCAG”, the binding signal was 4360 fluorescence intensity (a.u.).
In the case of “ACTACCATTGCTGATGTCGTTGTCACCGCTACGTCATCATCGGAGTCACCTAGTGCAG”, the binding signal is reported as 16700 fluorescence intensity (a.u.).
For “GACTTGCATTATGAAACGGAGGAAGTATGTCGCCAGGCTCCGGAGTCACCTAGTGCAG”, the binding signal was 4670 fluorescence intensity (a.u.).
With “CATACGCGCGTGAACACTCCACATCAGCCTTTTCGAAGACCGGAGTCACCTAGTGCAG” the binding signal was 9790 fluorescence intensity (a.u.).
“CACAAGTAGCAAGCCAAGTAGATTGTTGGTTTGCTTCCCTCGGAGTCACCTAGTGCAG” was tested, and the binding signal was 3410 fluorescence intensity (a.u.).
“GTTCGCGGGCCGCGAACGTCCACGTACTAGACGCCCCTCACGGAGTCACCTAGTGCAG” was tested, and the binding signal was 4050 fluorescence intensity (a.u.).
With “CTTGATTCCTCTGTCTATTTAACGATTTGGACGAGGAAGCCGGAGTCACCTAGTGCAG” the binding signal was 18300 fluorescence intensity (a.u.).
With “GAAAATGTTATGGTCAATGACATGTGGGCCATGCAATTACCGGAGTCACCTAGTGCAG” the binding signal was 3280 fluorescence intensity (a.u.).
“TATTTATCAATTATCCATGACGTAAGTCTTATGCAATATGCGGAGTCACCTAGTGCAG” was tested, and the binding signal was 3840 fluorescence intensity (a.u.).
In the case of “AGCATCCACACGTGCGTTTCTTTTCTTTTCTTTCCGGCCGCGGAGTCACCTAGTGCAG”, the binding signal is reported as 4020 fluorescence intensity (a.u.).
In the case of “ATGACCCAATCAGTTGTGTCACCCTGCCATTACGCATCTCCGGAGTCACCTAGTGCAG”, the binding signal is reported as 3530 fluorescence intensity (a.u.).
In the case of “GCGGCGTGACGCGGAGGCGCTCGCCCGGGCCATGGATGAGCGGAGTCACCTAGTGCAG”, the binding signal is reported as 23400 fluorescence intensity (a.u.).
In the case of “CTGTCTGTCTGACCGGCTCTATGACGATAGTCAGACTTGTCGGAGTCACCTAGTGCAG”, the binding signal is reported as 3760 fluorescence intensity (a.u.).
“ACCTACCCGACCGTTGCGTTGCCCTCCCAAAACCAAACCACGGAGTCACCTAGTGCAG” was tested, and the binding signal was 3320 fluorescence intensity (a.u.).
With “TTTAGCATAACAAGAACTAAGGGCATCACCAATATATATGCGGAGTCACCTAGTGCAG” the binding signal was 4190 fluorescence intensity (a.u.).
In the case of “TTTGAAACTTGCTGACAGTAATGATTCTACATGTCAGCCTCGGAGTCACCTAGTGCAG”, the binding signal is reported as 4230 fluorescence intensity (a.u.).
For “GTTTTGTTTTAATTCAGTAGCTACACGTACTACTAGCTTTCGGAGTCACCTAGTGCAG”, the binding signal was 4210 fluorescence intensity (a.u.).
With “CGTGGTTGTTTTATCTAGGATGTGGACGTGGCATCCTATTCGGAGTCACCTAGTGCAG” the binding signal was 8330 fluorescence intensity (a.u.).
“GGAGCGGGGTACGCATCTGTACCTGTACGGGATCCCGGCGCGGAGTCACCTAGTGCAG” was tested, and the binding signal was 3750 fluorescence intensity (a.u.).
In the case of “GCAGGTCAAGCGGTCACCCTCACTCCACCATTGTCATCTTCGGAGTCACCTAGTGCAG”, the binding signal is reported as 3390 fluorescence intensity (a.u.).
“ACATCCCGTCCATTGCTCCTAGCACACGCATGCGTCGCCACGGAGTCACCTAGTGCAG” was tested, and the binding signal was 3490 fluorescence intensity (a.u.).
For “GCACGGGAAACTAAGCTGCAGTGACCACCCACGTGCCGTGCGGAGTCACCTAGTGCAG”, the binding signal was 6660 fluorescence intensity (a.u.).
With “TCTATCATAACTATCCTCCCAATCTCGACATTACATCATCCGGAGTCACCTAGTGCAG” the binding signal was 3970 fluorescence intensity (a.u.).
In the case of “CCCGACTCCTAACTGCCCACTCCGATTTGACGCCATCTGCCGGAGTCACCTAGTGCAG”, the binding signal is reported as 3700 fluorescence intensity (a.u.).
